Small differences around the control level are noise.
Key:
Test in all cases: normalised response (% of control), CellTox Green; higher = less cell death (100 = DMSO, 0 = benzethonium chloride kill control)
Settings in all cases: incubation time: 72 h
MDA-MB-231 [1] = test system: MDA-MB-231
Method: (§1)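 DSRT, 72 h incubation, CellTox Green / CellTiter-Glo readout. Signal is normalised to DMSO and benzethonium chloride controls. Value is the normalised response at the lowest tested concentration.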

BT-474 [2] = test system: BT-474
Method: as §1

HCC1599 [3] = test system: HCC1599
Method: as §1

MDA-MB-453 [4] = test system: MDA-MB-453
Method: as §1

CAL-51 [5] = test system: CAL-51
Method: as §1

DU-4475 [6] = test system: DU-4475
Method: as §1

MDA-MB-468 [7] = test system: MDA-MB-468
Method: as §1

BT-549 [8] = test system: BT-549
Method: as §1

HCC1937 = test system: HCC1937
Method: as §1

CAL-120 [9] = test system: CAL-120
Method: as §1

HCC1143 = test system: HCC1143
Method: as §1

CAL-85-1 [10] = test system: CAL-85-1
Method: as §1

CAL-148 [11] = test system: CAL-148
Method: as §1

MFM-223 [12] = test system: MFM-223
Method: as §1

Hs578T [13] = test system: Hs578T
Method: as §1

MDA-MB-436 [14] = test system: MDA-MB-436
Method: as §1

MCF-10A = test system: MCF-10A
Method: as §1

HDQ-P1 [15] = test system: HDQ-P1
Method: (§2)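 DSRT, 72 h incubation, CellTox Green / CellTiter-Glo readout. Signal is normalised to DMSO and benzethonium chloride controls. Value is the normalised response at dose 2.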

MDA-MB-231 [16] = test system: MDA-MB-231; remark: listed apart in the source
Method: as §2

BT-474 [17] = test system: BT-474; remark: listed apart in the source
Method: as §2

HCC1599 [18] = test system: HCC1599; remark: listed apart in the source
Method: as §2

MDA-MB-453 [19] = test system: MDA-MB-453; remark: listed apart in the source
Method: as §2

CAL-51 [20] = test system: CAL-51; remark: listed apart in the source
Method: as §2

DU-4475 [21] = test system: DU-4475; remark: listed apart in the source
Method: as §2

MDA-MB-468 [22] = test system: MDA-MB-468; remark: listed apart in the source
Method: as §2

BT-549 [23] = test system: BT-549; remark: listed apart in the source
Method: as §2

CAL-120 [24] = test system: CAL-120; remark: listed apart in the source
Method: as §2

CAL-85-1 [25] = test system: CAL-85-1; remark: listed apart in the source
Method: as §2

CAL-148 [26] = test system: CAL-148; remark: listed apart in the source
Method: as §2

MFM-223 [27] = test system: MFM-223; remark: listed apart in the source
Method: as §2

Hs578T [28] = test system: Hs578T; remark: listed apart in the source
Method: as §2

MDA-MB-436 [29] = test system: MDA-MB-436; remark: listed apart in the source
Method: as §2

HDQ-P1 [30] = test system: HDQ-P1; remark: listed apart in the source
Method: as §1

Compound | normalised response (MDA-MB-231 [1]) | normalised response (BT-474 [2]) | normalised response (HCC1599 [3]) | normalised response (MDA-MB-453 [4]) | normalised response (CAL-51 [5]) | normalised response (DU-4475 [6]) | normalised response (MDA-MB-468 [7]) | normalised response (BT-549 [8]) | normalised response (HCC1937) | normalised response (CAL-120 [9]) | normalised response (HCC1143) | normalised response (CAL-85-1 [10]) | normalised response (CAL-148 [11]) | normalised response (MFM-223 [12]) | normalised response (Hs578T [13]) | normalised response (MDA-MB-436 [14]) | normalised response (MCF-10A) | normalised response (HDQ-P1 [15]) | normalised response (MDA-MB-231 [16]) | normalised response (BT-474 [17]) | normalised response (HCC1599 [18]) | normalised response (MDA-MB-453 [19]) | normalised response (CAL-51 [20]) | normalised response (DU-4475 [21]) | normalised response (MDA-MB-468 [22]) | normalised response (BT-549 [23]) | normalised response (CAL-120 [24]) | normalised response (CAL-85-1 [25]) | normalised response (CAL-148 [26]) | normalised response (MFM-223 [27]) | normalised response (Hs578T [28]) | normalised response (MDA-MB-436 [29]) | normalised response (HDQ-P1 [30])
CCn1c(C(=O)N(C2CC2)C2CC2)cc2c3c(ncn3C)c(Nc3cc(C)n(C)n3)nc21 (1 nM) | 117% | 96.7% | 112% | 80.3% | 97.7% | 106% | 95.9% | 99.5% | 88.2% | 105% | 119% | 101% | 103% | 103% | 108% | 102% | 108% |  |  |  |  |  |  |  |  |  |  |  |  |  |  |  | 
CC(C)(C#N)c1cc(Cn2cncn2)cc(C(C)(C)C#N)c1 [Anastrozole] (10 nM) |  |  |  |  |  |  |  |  |  |  |  |  |  |  |  |  |  | 112% | 98.2% | 103% | 94.7% | 96% | 93.1% | 99.2% | 137% | 110% | 101% | 106% | 105% | 68.9% | 100% | 56.1% | 
Cn1c(=O)n(-c2ccc(C(C)(C)C#N)cc2)c2c3cc(-c4cnc5ccccc5c4)ccc3ncc21 [Dactolisib] (0.1 nM) | 106% | 98.5% | 90.9% | 113% | 117% | 103% | 118% | 102% | 74.6% | 99.5% | 117% | 99.3% | 107% | 64.6% | 112% | 103% | 99.9% |  |  |  |  |  |  |  |  |  |  |  |  |  |  |  | 
CC(=O)N(O)CCCCCNC(=O)CCC(=O)N(O)CCCCCNC(=O)CCC(=O)N(O)CCCCCN [Deferoxamine] (1 nM) | 96.5% | 97.3% | 98.3% |  | 107% | 98.7% |  | 96.2% | 107% | 102% |  | 115% | 90.8% | 101% | 74.2% | 50.6% | 101% |  |  |  |  |  |  |  |  |  |  |  |  |  |  |  | 66.7%
CC(=O)O[C@@]12CO[C@@H]1C[C@H](O)[C@@]1(C)C(=O)[C@H](O)C3=C(C)[C@@H](OC(=O)[C@H](O)[C@@H](NC(=O)OC(C)(C)C)c4ccccc4)C[C@@](O)([C@@H](OC(=O)c4ccccc4)[C@H]21)C3(C)C [Docetaxel] (0.1 nM) | 104% | 99.4% | 94.1% | 105% | 97.1% | 97.2% | 90.7% | 100% | 104% | 97.6% | 119% | 95.4% | 98.6% | 84.3% | 89.8% |  | 95.3% |  |  |  |  |  |  |  |  |  |  |  |  |  |  |  | 
Nc1ccccc1NC(=O)c1ccc(CNC(=O)OCc2cccnc2)cc1 [Entinostat] (1 nM) | 61.2% | 100% | 96.9% | 102% | 71.8% | 98.6% |  | 89.1% |  | 101% | 122% | 104% |  | 96.3% | 80.1% |  |  |  |  |  |  |  |  |  |  |  |  |  |  |  |  |  | 98.8%
C[C@]1(O)C[C@@H](c2nc(-c3ccc4ccc(-c5ccccc5)nc4c3)c3c(N)nccn32)C1 [Linsitinib] (1 nM) | 90.7% | 95% | 93.2% | 101% | 105% | 96.7% | 77.6% | 87.5% | 93.8% | 95.3% | 107% | 101% | 103% | 102% | 102% | 92.2% | 70.4% |  |  |  |  |  |  |  |  |  |  |  |  |  |  |  | 
N[C@@H](Cc1ccc(N(CCCl)CCCl)cc1)C(=O)O [Melphalan] (1.25 nM) | 115% | 101% | 112% | 101% | 118% | 112% |  | 105% | 109% | 104% | 101% | 97.3% | 95.2% | 102% | 97.6% | 106% | 98% |  |  |  |  |  |  |  |  |  |  |  |  |  |  |  | 92.2%
C=CCN(/C=C1/C(=O)O[C@H](COC)[C@@]2(C)C1=C(O)C(=O)C1=C2[C@H](OC(C)=O)C[C@]2(C)C(=O)CC[C@@H]12)CC=C [Sonolisib] (1 nM) | 104% | 98.7% | 100% | 111% | 99.8% | 102% | 89.7% | 92.8% | 98.3% | 102% | 90.1% | 97.3% | 87.3% | 59.7% | 83.8% | 93.7% | 97.6% |  |  |  |  |  |  |  |  |  |  |  |  |  |  |  | 

Just normalised response (HCC1143), normalised response (HDQ-P1 [30]) and normalised response (CAL-120 [24]), for some of the entries so far:
Compound	normalised response (HCC1143)	normalised response (HDQ-P1 [30])	normalised response (CAL-120 [24])
Nc1ccccc1NC(=O)c1ccc(CNC(=O)OCc2cccnc2)cc1 [Entinostat] (1 nM)	122%	98.8%	
C[C@]1(O)C[C@@H](c2nc(-c3ccc4ccc(-c5ccccc5)nc4c3)c3c(N)nccn32)C1 [Linsitinib] (1 nM)	107%		
